Binding screen against folded nucleic acids

Source: the ROBIN nucleic acid binder screens (doi:10.1002/anie.202211358).

Targets, with sequences 5′ to 3′:
PreQ1: PreQ1 riboswitch RNA pseudoknot, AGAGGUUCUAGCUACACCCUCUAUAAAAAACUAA. From B. subtilis. About 170 hits among about 24,000 compounds.
TPP: TPP riboswitch RNA three-way junction, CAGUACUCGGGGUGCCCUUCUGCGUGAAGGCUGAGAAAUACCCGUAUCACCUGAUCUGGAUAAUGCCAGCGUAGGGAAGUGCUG. About 160 hits among about 24,000 compounds.
SAM-II: SAM-II riboswitch RNA pseudoknot, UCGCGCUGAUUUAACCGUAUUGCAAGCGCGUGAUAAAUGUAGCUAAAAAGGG. About 200 hits among about 21,000 compounds.

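The test is a small-molecule microarray: each compound is printed twice on a reactive slide, and binding shows as fluorescence of the labelled oligonucleotide after washing. The data file lists only calls. An earlier report of the laboratory on the PreQ1, TPP and SAM-II riboswitches (doi:10.1038/s41467-019-09493-3) used 1 µM RNA for 2 h and required a mean Z-score above 3 (spot signal-to-noise against the whole library), a score well above that on a control array, and duplicate spots agreeing (coefficient of variation under 100); it then also set aside compounds that hit other targets, which this list keeps. The cut-offs behind this list may differ. A missing hit is not proof of no binding, and a hit is not a measured affinity.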 Key: hit = hit, no hit = tested without a hit. Compounds were drawn at random from those tested, without regard to their results. A target missing from an entry has no call listed here.

{"compound": "Cc1cccc(-c2[nH]c(C(C)(C)C)nc2-c2ccc3nccnc3c2)n1", "PreQ1": "no hit", "TPP": "no hit", "SAM-II": "no hit"}
{"compound": "Cc1noc2ncnc(NC[C@H]3C[C@@H](CO)N(C)[C@H]3c3ccccc3F)c12", "PreQ1": "no hit", "TPP": "no hit", "SAM-II": "no hit"}
{"compound": "CCOc1ccc(C(CN)CC(=O)O)cc1OCC", "stereo": "stereo unspecified", "PreQ1": "no hit", "TPP": "no hit", "SAM-II": "no hit"}
{"compound": "COc1ccc(-c2cc(-c3ccc(Cl)cc3)nc(N)n2)cc1", "PreQ1": "no hit", "TPP": "no hit"}
{"compound": "O=C(Nc1ccc(Br)cc1)C1CC(O)CN1C(=O)OCc1ccccc1", "stereo": "stereo unspecified", "PreQ1": "no hit", "TPP": "no hit", "SAM-II": "no hit"}
{"compound": "Cc1ccc(OCC(O)Cn2c(C3CC(=O)N(c4cccc(C)c4)C3)nc3ccccc32)cc1", "stereo": "stereo unspecified", "PreQ1": "no hit", "TPP": "no hit"}
{"compound": "Cc1cccc(C)c1NC(=O)Cn1nnc(C(=O)NCCc2ccccc2)c1N", "PreQ1": "no hit", "TPP": "no hit", "SAM-II": "no hit"}
{"compound": "Nc1nnc(CCSc2ccc(Br)cc2)s1", "PreQ1": "no hit", "TPP": "no hit", "SAM-II": "no hit"}
{"compound": "O=C(NCc1ccc2c(c1)CCCC2)c1cn(CCC2CCCCN2)nn1", "stereo": "stereo unspecified", "PreQ1": "no hit", "TPP": "no hit", "SAM-II": "no hit"}
{"compound": "CCCC1(CO)CCCN(Cc2c(C)n[nH]c2C)C1", "stereo": "stereo unspecified", "PreQ1": "no hit", "TPP": "no hit", "SAM-II": "no hit"}
{"compound": "COc1ccc(OCC(O)CN2CCN(c3ccc(Cl)cc3)CC2)cc1", "stereo": "stereo unspecified", "PreQ1": "no hit", "TPP": "no hit", "SAM-II": "no hit"}
{"compound": "Cc1cc(NS(=O)(=O)c2ccc(N)cc2)no1", "PreQ1": "no hit", "TPP": "no hit", "SAM-II": "no hit"}
{"compound": "Cc1cc(C)c2[nH]c(C)c(CC(=O)N3CC(O)C3)c2c1", "PreQ1": "no hit", "TPP": "no hit", "SAM-II": "no hit"}
{"compound": "Cc1cc2cc3c(=O)[nH]c(=O)cc-3n(CC(O)C(O)C(O)CO)c2cc1C", "stereo": "stereo unspecified", "PreQ1": "no hit", "TPP": "no hit", "SAM-II": "no hit"}
{"compound": "N#CC(=Cc1cc2ccccc2nc1N1CCCCC1)c1nn(-c2ccccc2)c(N)c1C#N", "PreQ1": "no hit", "TPP": "no hit", "SAM-II": "no hit"}
{"compound": "CCOC(=O)c1c(N)n(-c2ccc(C)c(Cl)c2)c2nc3ccccc3nc12", "PreQ1": "no hit", "TPP": "no hit", "SAM-II": "no hit"}
{"compound": "OC(Cn1cccc1)c1ccccc1", "stereo": "stereo unspecified", "PreQ1": "no hit", "TPP": "no hit", "SAM-II": "no hit"}
{"compound": "CNCC(=O)NC(C)c1nc2c(s1)CCCC2", "stereo": "stereo unspecified", "PreQ1": "no hit", "TPP": "no hit", "SAM-II": "no hit"}
{"compound": "COC(=O)c1c(N)sc(C(C)=CC#N)c1C", "PreQ1": "no hit", "TPP": "no hit", "SAM-II": "no hit"}
{"compound": "Cc1cc(=O)n2c3c(c4c(cc13)c(CN(C)C)cc(=O)n4C)OC2.Cl", "PreQ1": "no hit", "TPP": "no hit", "SAM-II": "no hit"}
{"compound": "Cc1nc(CCNC(=O)C2CNCCO2)sc1C", "stereo": "stereo unspecified", "PreQ1": "no hit", "TPP": "no hit", "SAM-II": "no hit"}
{"compound": "Cc1cc(OCC(O)Cn2c(C3CC3)nc3ccccc32)ccc1Cl", "stereo": "stereo unspecified", "PreQ1": "no hit", "TPP": "no hit"}
{"compound": "Cc1nc2c(c(N3CCCC(CN4CCCC4=O)C3)n1)CCNC2", "stereo": "stereo unspecified", "PreQ1": "no hit", "TPP": "no hit", "SAM-II": "no hit"}
{"compound": "CCCC(=O)c1cn(CC(=O)N2CCOCC(CO)C2)c2ccccc12", "stereo": "stereo unspecified", "PreQ1": "no hit", "TPP": "no hit", "SAM-II": "no hit"}
{"compound": "COc1ccc(C2Nc3ccccc3C(=O)N2Cc2ccco2)cc1COc1ccc([N+](=O)[O-])cc1", "stereo": "stereo unspecified", "PreQ1": "no hit", "TPP": "no hit", "SAM-II": "no hit"}
{"compound": "Nc1ccc(OCCO)c(OCCO)c1", "PreQ1": "no hit", "TPP": "no hit", "SAM-II": "no hit"}
{"compound": "C[C@@H]1[C@H](C)CC[C@]2(C(=O)O)CC[C@]3(C)C(=CC[C@@H]4[C@@]5(C)CC[C@H](O)C(C)(C)[C@H]5CC[C@]43C)[C@@H]12", "PreQ1": "no hit", "TPP": "no hit", "SAM-II": "no hit"}
{"compound": "COc1cc(C2C(C#N)=C(N)Oc3cc(O)ccc32)cc(OC)c1OC", "stereo": "stereo unspecified", "PreQ1": "no hit", "TPP": "no hit", "SAM-II": "no hit"}
{"compound": "OCCC#Cc1ccc(CN2CCN(c3nc4ccccc4o3)CC2)cc1", "PreQ1": "no hit", "TPP": "no hit", "SAM-II": "no hit"}
{"compound": "Nc1nonc1-n1cccc1", "PreQ1": "no hit", "TPP": "no hit", "SAM-II": "no hit"}